Data from the supplement of paper PMC10849652.
The other results are listed elsewhere or left out.

Protein sequences, listed by entry. Tags and fused reporters are not part of them. Lines headed by an entry give the natural chain unless they say otherwise; changes in a name come on top.
UniProt P53801: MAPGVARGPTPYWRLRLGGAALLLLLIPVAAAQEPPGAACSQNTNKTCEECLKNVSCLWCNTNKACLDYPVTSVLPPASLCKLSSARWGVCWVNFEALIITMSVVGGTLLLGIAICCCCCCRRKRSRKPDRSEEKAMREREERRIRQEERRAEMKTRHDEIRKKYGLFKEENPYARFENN
UniProt P62191: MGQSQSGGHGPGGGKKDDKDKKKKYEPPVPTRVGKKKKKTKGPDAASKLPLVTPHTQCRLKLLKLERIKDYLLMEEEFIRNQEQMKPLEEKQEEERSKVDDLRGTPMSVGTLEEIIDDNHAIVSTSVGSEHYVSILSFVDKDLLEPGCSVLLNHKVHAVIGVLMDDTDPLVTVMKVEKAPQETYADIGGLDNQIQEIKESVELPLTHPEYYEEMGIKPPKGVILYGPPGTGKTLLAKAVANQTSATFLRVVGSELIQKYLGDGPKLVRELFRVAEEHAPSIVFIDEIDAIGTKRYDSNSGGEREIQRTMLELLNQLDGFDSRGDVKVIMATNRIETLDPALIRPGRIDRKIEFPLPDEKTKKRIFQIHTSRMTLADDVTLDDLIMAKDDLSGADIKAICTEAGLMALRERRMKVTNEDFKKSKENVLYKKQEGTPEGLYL
UniProt Q96PU8: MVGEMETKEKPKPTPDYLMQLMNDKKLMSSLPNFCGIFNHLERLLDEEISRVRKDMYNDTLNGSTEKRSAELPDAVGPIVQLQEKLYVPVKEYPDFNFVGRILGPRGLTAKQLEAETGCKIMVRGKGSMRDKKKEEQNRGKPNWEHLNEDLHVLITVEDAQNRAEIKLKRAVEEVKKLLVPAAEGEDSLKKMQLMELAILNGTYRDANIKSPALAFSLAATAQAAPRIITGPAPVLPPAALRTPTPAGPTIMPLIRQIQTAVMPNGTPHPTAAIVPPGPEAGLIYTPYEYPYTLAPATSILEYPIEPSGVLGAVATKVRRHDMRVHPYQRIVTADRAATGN
UniProt P43686, whole entry, looked up: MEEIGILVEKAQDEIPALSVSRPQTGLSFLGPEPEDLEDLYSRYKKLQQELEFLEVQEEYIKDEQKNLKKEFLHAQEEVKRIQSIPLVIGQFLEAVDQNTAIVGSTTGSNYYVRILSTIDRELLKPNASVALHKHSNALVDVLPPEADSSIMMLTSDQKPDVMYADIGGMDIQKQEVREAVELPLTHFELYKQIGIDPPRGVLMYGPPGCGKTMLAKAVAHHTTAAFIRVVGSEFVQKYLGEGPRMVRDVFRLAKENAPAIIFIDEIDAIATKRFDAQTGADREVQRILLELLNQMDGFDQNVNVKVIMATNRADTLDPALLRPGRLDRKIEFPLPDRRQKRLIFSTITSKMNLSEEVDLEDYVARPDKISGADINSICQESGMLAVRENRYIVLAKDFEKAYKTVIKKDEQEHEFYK
UniProt Q9H3S7: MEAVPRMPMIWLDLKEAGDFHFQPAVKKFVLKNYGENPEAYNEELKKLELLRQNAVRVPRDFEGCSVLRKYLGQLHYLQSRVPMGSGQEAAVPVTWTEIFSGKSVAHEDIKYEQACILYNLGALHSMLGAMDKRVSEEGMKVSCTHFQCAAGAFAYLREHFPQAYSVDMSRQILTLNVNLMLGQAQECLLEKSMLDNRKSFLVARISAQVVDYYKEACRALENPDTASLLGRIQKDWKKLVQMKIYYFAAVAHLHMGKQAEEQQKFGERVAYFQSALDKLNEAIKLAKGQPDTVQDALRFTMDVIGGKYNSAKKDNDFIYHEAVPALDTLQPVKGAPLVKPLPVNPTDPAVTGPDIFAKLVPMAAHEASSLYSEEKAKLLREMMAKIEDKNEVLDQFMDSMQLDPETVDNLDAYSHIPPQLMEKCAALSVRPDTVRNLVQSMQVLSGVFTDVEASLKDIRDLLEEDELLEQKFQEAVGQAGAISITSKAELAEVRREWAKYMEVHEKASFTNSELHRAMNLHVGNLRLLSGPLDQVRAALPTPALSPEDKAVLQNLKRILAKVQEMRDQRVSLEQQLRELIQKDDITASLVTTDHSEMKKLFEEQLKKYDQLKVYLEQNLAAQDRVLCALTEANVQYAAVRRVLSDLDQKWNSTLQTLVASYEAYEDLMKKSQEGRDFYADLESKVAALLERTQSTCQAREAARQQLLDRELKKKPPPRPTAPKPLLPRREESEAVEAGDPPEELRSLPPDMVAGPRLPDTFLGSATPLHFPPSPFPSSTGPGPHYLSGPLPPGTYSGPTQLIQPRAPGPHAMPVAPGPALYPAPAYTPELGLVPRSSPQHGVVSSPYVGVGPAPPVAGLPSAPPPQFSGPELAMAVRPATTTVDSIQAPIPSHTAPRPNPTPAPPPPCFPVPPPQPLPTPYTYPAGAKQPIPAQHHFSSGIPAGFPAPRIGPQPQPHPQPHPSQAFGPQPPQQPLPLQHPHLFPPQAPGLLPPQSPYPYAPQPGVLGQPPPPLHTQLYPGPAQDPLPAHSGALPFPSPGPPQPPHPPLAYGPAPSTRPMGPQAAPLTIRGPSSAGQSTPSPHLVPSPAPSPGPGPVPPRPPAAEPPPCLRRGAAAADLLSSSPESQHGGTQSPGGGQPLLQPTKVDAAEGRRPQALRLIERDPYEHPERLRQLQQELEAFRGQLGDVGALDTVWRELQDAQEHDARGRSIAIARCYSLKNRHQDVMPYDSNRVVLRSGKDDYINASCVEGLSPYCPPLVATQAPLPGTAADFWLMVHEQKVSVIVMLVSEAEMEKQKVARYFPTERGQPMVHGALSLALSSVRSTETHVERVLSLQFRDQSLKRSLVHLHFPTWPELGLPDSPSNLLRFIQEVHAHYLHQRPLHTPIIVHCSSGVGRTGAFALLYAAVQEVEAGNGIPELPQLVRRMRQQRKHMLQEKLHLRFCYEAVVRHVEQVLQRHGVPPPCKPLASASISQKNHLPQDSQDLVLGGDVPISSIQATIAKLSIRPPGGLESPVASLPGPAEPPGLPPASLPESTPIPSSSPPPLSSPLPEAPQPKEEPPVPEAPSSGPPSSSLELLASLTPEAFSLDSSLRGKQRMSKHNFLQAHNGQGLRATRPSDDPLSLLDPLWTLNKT
UniProt Q7Z7A4: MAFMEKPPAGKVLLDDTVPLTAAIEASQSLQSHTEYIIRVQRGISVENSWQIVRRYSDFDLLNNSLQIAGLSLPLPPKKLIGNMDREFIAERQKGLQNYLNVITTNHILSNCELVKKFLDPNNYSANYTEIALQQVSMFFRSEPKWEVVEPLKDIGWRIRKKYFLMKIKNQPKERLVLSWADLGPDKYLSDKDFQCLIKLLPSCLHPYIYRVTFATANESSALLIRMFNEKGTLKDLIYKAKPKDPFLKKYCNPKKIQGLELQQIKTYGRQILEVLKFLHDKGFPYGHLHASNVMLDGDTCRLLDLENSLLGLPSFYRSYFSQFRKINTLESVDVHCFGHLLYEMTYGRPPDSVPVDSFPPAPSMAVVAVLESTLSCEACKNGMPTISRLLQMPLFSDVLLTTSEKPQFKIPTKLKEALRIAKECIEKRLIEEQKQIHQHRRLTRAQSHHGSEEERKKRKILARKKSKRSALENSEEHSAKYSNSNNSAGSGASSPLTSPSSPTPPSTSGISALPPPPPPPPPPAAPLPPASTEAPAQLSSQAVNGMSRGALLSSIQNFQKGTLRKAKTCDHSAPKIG
UniProt Q00577: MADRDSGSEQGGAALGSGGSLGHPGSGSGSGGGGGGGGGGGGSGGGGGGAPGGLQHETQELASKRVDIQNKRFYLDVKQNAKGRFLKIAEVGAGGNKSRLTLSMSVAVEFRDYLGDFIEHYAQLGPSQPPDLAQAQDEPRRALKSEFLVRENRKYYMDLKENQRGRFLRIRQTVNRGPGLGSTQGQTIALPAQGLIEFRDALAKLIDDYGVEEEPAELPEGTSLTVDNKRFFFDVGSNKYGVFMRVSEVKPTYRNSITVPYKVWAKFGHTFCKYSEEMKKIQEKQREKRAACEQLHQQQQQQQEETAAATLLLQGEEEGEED
UniProt O95997: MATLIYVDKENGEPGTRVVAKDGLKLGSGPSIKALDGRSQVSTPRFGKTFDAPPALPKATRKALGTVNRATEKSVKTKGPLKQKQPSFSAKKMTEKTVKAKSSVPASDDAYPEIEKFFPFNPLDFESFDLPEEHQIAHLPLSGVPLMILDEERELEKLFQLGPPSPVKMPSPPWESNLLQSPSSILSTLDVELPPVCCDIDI
UniProt P23219, whole entry, looked up: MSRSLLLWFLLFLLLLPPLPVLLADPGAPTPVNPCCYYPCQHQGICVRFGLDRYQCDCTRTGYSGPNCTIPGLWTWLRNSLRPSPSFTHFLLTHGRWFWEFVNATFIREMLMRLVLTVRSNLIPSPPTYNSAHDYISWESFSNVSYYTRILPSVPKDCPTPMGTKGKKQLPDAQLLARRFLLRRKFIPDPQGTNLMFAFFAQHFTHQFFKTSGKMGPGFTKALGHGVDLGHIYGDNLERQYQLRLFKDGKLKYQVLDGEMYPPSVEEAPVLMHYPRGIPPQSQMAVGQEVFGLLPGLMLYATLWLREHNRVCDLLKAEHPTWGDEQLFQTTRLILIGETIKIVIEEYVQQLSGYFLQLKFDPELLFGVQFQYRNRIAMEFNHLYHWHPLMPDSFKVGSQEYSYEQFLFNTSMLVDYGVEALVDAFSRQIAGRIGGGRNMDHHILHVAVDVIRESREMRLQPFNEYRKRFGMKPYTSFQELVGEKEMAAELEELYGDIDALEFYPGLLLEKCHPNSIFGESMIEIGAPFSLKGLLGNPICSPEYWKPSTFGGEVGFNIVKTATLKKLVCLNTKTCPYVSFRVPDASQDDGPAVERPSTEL

Experiments:
Assay in all cases: log2 fold change, soluble protein after heating vs DMSO (PISA); higher = thermal stabilisation; K562 cells, 10 uM, 30 min; active = over 0.2 and 3.5 SD of the protein, either way, in both replicates (recomputed)
[1] = compound: COC1=CC=C(C=C1)CN2C=CC3=C2C=C(C=C3)C(=O)NO
Method in brief: (§1)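 K562 cells (2×10^6 cells/mL) were treated with 10 μM compound for 30 min, and aliquots were heated for 3 min over 48°C-58°C. Pooled aliquots were extracted in PBS with 0.5% NP-40 at 4°C, and the supernatant after 21,000xg for 90 min was measured by TMTpro 16plex LC-MS/MS with channel sums equalised. Reported thermal stability, relative to control samples and from duplicates, is a log2 fold change.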

filanesib = compound: CON(C)C(=O)N1N=C(c2cc(F)ccc2F)S[C@@]1(CCCN)c1ccccc1 [filanesib]
Method in brief: as §1

zotarolimus = compound: CO[C@H]1C[C@@H]2CC[C@@H](C)[C@@](O)(O2)C(=O)C(=O)N2CCCC[C@H]2C(=O)O[C@H]([C@H](C)C[C@@H]2CC[C@H](n3cnnn3)[C@H](OC)C2)CC(=O)[C@H](C)/C=C(\C)[C@@H](O)[C@@H](OC)C(=O)[C@H](C)C[C@H](C)/C=C/C=C/C=C/1C [zotarolimus]
Method in brief: as §1

idasanutlin = compound: COc1cc(C(=O)O)ccc1NC(=O)[C@@H]1N[C@@H](CC(C)(C)C)[C@](C#N)(c2ccc(Cl)cc2F)[C@H]1c1cccc(Cl)c1F [idasanutlin]
Method in brief: as §1

alisertib = compound: COc1cc(Nc2ncc3c(n2)-c2ccc(Cl)cc2C(c2c(F)cccc2OC)=NC3)ccc1C(=O)O [alisertib]
Method in brief: as §1

[2] = compound: COc1cc2nc(-c3cc(F)ccc3O)nc(N[C@@H]3CNC[C@H]3C(C)(C)O)c2cc1OC
Method in brief: as §1

gefitinib = compound: COc1cc2ncnc(Nc3ccc(F)c(Cl)c3)c2cc1OCCCN1CCOCC1 [gefitinib]
Method in brief: as §1

[3] = compound: COc1cccc2cc(-c3nc([C@H]4CC[C@H](C(=O)O)CC4)n4ncnc(N)c34)[nH]c12
Method in brief: as §1

lapatinib = compound: CS(=O)(=O)CCNCc1ccc(-c2ccc3ncnc(Nc4ccc(OCc5cccc(F)c5)c(Cl)c4)c3c2)o1 [lapatinib]
Method in brief: as §1

pictilisib = compound: CS(=O)(=O)N1CCN(Cc2cc3nc(-c4cccc5[nH]ncc45)nc(N4CCOCC4)c3s2)CC1 [pictilisib]
Method in brief: as §1

[4] = compound: CS(=O)(=O)c1ccc(-c2cnc(N)c(C(=O)Nc3ccccc3)n2)cc1
Method in brief: as §1

crizotinib = compound: C[C@@H](Oc1cc(-c2cnn(C3CCNCC3)c2)cnc1N)c1c(Cl)ccc(F)c1Cl [crizotinib]
Method in brief: as §1

[5] = compound: C[C@@H]1COCCN1C2=NC(=NC(=C2)C3(CC3)S(=O)(=O)C)C4=C5C=CNC5=CC=C4
Method in brief: as §1

[6] = compound: C[C@H](C1=CC=C(C=C1)C(=O)NC2=C3C=CNC3=NC=C2)N
Method in brief: as §1

gandotinib = compound: Cc1cc(Nc2cc(CN3CCOCC3)c3nc(C)c(Cc4ccc(Cl)cc4F)n3n2)n[nH]1 [gandotinib]
Method in brief: as §1

[7] = compound: Cc1cc(SCc2sc(-c3ccc(C(F)(F)F)cc3)nc2C)ccc1OCC(=O)O
Method in brief: as §1

doramapimod = compound: Cc1ccc(-n2nc(C(C)(C)C)cc2NC(=O)Nc2ccc(OCCN3CCOCC3)c3ccccc23)cc1 [doramapimod]
Method in brief: as §1

ispinesib = compound: Cc1ccc(C(=O)N(CCCN)[C@@H](c2nc3cc(Cl)ccc3c(=O)n2Cc2ccccc2)C(C)C)cc1 [ispinesib]
Method in brief: as §1

duvelisib = compound: C[C@H](Nc1ncnc2nc[nH]c12)c1cc2cccc(Cl)c2c(=O)n1-c1ccccc1 [duvelisib]
Method in brief: as §1

tozasertib = compound: Cc1cc(Nc2cc(N3CCN(C)CC3)nc(Sc3ccc(NC(=O)C4CC4)cc3)n2)n[nH]1 [tozasertib]
Method in brief: as §1

Measured: log2 fold change

PTTG1IP (UniProt P53801)
inactive: [1] -0.013 | filanesib -0.186 | zotarolimus -0.124 | idasanutlin -0.004 | alisertib -0.046 | [2] 0.038 | gefitinib 0.158 | [3] 0.007 | lapatinib -0.096 | pictilisib 0.086 | [4] 0.043 | crizotinib 0.1 | [5] 0.102 | [6] -0.044 | gandotinib 0.094 | [7] -0.075 | doramapimod -0.106

PSMC1 (UniProt P62191)
inactive: [1] -0.062 | filanesib 0.03 | zotarolimus -0.013 | idasanutlin 0.009 | alisertib -0.049 | [2] -0.018 | gefitinib -0.05 | [3] -0.015 | lapatinib 0.054 | pictilisib -0.006 | [4] 0.011 | crizotinib 0.023 | [5] -0.072 | [6] 0.073 | gandotinib 0.06 | [7] 0.01 | doramapimod 0.033 | ispinesib -0.036

QKI (UniProt Q96PU8)
inactive: [1] -0.004 | filanesib -0.004 | zotarolimus -0.026 | idasanutlin -0.032 | alisertib -0.077 | [2] -0.079 | gefitinib 0.019 | [3] 0.011 | lapatinib -0.007 | pictilisib -0.032 | [4] -0.057 | crizotinib 0.075 | [5] 0.046 | [6] -0.079 | gandotinib -0.093 | [7] 0.034 | doramapimod 0 | ispinesib -0.034

PSMC4 (UniProt P43686)
inactive: [1] -0.052 | filanesib 0.066 | zotarolimus 0.008 | idasanutlin 0.017 | alisertib -0.049 | [2] -0.007 | gefitinib -0.052 | [3] -0.022 | lapatinib 0.033 | pictilisib -0.099 | [4] 0 | crizotinib 0.007 | [5] -0.056 | [6] 0.06 | gandotinib -0.011 | [7] 0.001 | doramapimod 0.02 | ispinesib -0.02

PTPN23 (UniProt Q9H3S7)
inactive: [1] 0.12 | filanesib 0.038 | zotarolimus 0.059 | idasanutlin -0.038 | alisertib 0.002 | [2] 0.044 | gefitinib 0.041 | [3] -0.008 | lapatinib -0.012 | pictilisib 0.037 | [4] 0.014 | crizotinib 0.057 | [5] 0.018 | [6] 0.027 | gandotinib -0.072 | [7] 0.13 | doramapimod -0.002 | ispinesib 0.018

PXK (UniProt Q7Z7A4)
inactive: [1] 0.105 | filanesib -0.005 | zotarolimus 0.021 | idasanutlin -0.035 | alisertib -0.057 | [2] 0.069 | gefitinib -0.001 | [3] 0.015 | lapatinib 0.03 | pictilisib 0.127 | [4] -0.06 | crizotinib -0.139 | [5] 0.032 | [6] -0.026 | gandotinib -0.042 | [7] 0.011 | doramapimod -0.025 | ispinesib -0.203

PURA (UniProt Q00577)
inactive: [1] -0.336 | filanesib 0.277 | zotarolimus -0.093 | idasanutlin 0.179 | alisertib -0.106 | [2] -0.052 | gefitinib -0.024 | [3] -0.113 | lapatinib 0.104 | pictilisib -0.071 | [4] -0.064 | crizotinib 0.03 | [5] -0.44 | [6] 0.287 | gandotinib 0.334 | [7] -0.012 | doramapimod 0.063 | ispinesib -0.143

PTTG1 (UniProt O95997)
inactive: [1] 0.011 | filanesib 0.052 | zotarolimus -0.077 | idasanutlin -0.011 | alisertib -0.022 | [2] -0.156 | gefitinib -0.048 | [3] -0.058 | lapatinib -0.013 | pictilisib -0.07 | [4] -0.093 | crizotinib -0.012 | [5] -0.085 | [6] -0.044 | gandotinib -0.108 | [7] 0.021 | doramapimod 0.076 | ispinesib -0.034

PTGS1 isoform 6 (UniProt P23219)
inactive: [1] -0.025 | filanesib -0.012 | zotarolimus 0.067 | idasanutlin -0.12 | alisertib 0.192 | [2] 0.024 | gefitinib -0.024 | [3] -0.07 | lapatinib -0.027 | pictilisib 0.017 | [4] 0.005 | crizotinib 0.016 | [5] -0.005 | [6] -0.127 | duvelisib 0.067 | gandotinib -0.022 | tozasertib -0.023 | [7] -0.039 | doramapimod 0.035 | ispinesib 0.012

2 consecutive entries out of the list so far:
QKI (UniProt Q96PU8)
inactive: [1] -0.004 | filanesib -0.004 | zotarolimus -0.026 | idasanutlin -0.032 | alisertib -0.077 | [2] -0.079 | gefitinib 0.019 | [3] 0.011 | lapatinib -0.007 | pictilisib -0.032 | [4] -0.057 | crizotinib 0.075 | [5] 0.046 | [6] -0.079 | gandotinib -0.093 | [7] 0.034 | doramapimod 0 | ispinesib -0.034

PSMC4 (UniProt P43686)
inactive: [1] -0.052 | filanesib 0.066 | zotarolimus 0.008 | idasanutlin 0.017 | alisertib -0.049 | [2] -0.007 | gefitinib -0.052 | [3] -0.022 | lapatinib 0.033 | pictilisib -0.099 | [4] 0 | crizotinib 0.007 | [5] -0.056 | [6] 0.06 | gandotinib -0.011 | [7] 0.001 | doramapimod 0.02 | ispinesib -0.02
